{"source": "PubChem BioAssay AID624297", "about": "(National Center for Advancing Translational Sciences (NCATS), 2012)", "note": "Screen size: about 340,000 compounds; about 6,200 (1.8%) were called active. Inconclusive results, whose numbers are uncertain, are shown with a selection of clear calls. Calls come from the whole dose curve; as a rule, active = well fitted activation curve with a large enough effect; inconclusive = small, poorly fitted or top-dose-only effect; inactive = no such curve, though single readings can be large or run the other way. Potencies of inconclusive entries are doubtful fits and often do not repeat. Potency is the fitted concentration of half-maximal effect.", "data": [{"experiment": "A quantitative high throughput screen for small molecules that induce DNA re-replication in SW480 colon adenocarcinoma cells; note: nearly all actives have a fitted effect of over 55% in size; for re-replication activation: % of control where 0% means no effect.", "settings": "Hoechst DNA content imaging, 48 h; re-replication activation: at 46.1 µM (top of the series) unless noted", "procedure,_shortened": "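DNA re-replication was detected as more nuclei of elevated Hoechst intensity after 48 hr exposure to compound (23 nL pinned per well of 250 cells).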", "values": [{"smiles": "COc1ccccc1CNC(=O)C1CCN(S(=O)(=O)c2ccc3c(c2)NC(=O)CO3)CC1", "re-replication activation": "inactive: -20%"}, {"smiles": "O=C(O)CCCNC(=O)c1cncc(Br)c1", "re-replication activation": "inactive: -13%"}, {"smiles": "COc1ccc([C@H]2CC(=O)C=C(c3ccc(Cl)c(C(F)(F)F)c3)C2)cc1", "re-replication activation": "inactive: 0.218%"}, {"smiles": "CCC(=O)N1c2ccc(S(=O)(=O)CCC(=O)NCc3cccs3)cc2CC1C", "note": "(stereo not given)", "Potency": "inconclusive: 18.4 µM [activator, partial curve, poor fit]"}, {"smiles": "CC1CCN(c2ccc(-c3ccc(NC(=O)C(F)(F)F)cc3)nn2)CC1", "Potency": "inconclusive: 18.4 µM [activator, single point]"}, {"smiles": "CC(NC(=O)COC(=O)COc1ccc(C(=O)c2ccccc2)cc1)c1ccccc1", "note": "(stereo not given)", "Potency": "inconclusive: 1.03 µM [activator, partial curve, poor fit]"}, {"smiles": "O=C(c1cccs1)N1N=C(c2ccc(O)cc2)CC1c1ccccc1", "note": "(stereo not given)", "re-replication activation": "inactive: 1.27%"}, {"smiles": "Cn1nc(C(=O)NC2CCCCCC2)ccc1=O", "re-replication activation": "inactive: 0.81%"}, {"smiles": "CCOc1ccccc1N1CC(C(=O)Nc2ccc(S(=O)(=O)N3CCCCC3)cc2)CC1=O", "note": "(stereo not given)", "re-replication activation": "inactive: 12.5%"}, {"smiles": "CCOC(=O)c1c(C)[nH]c(C2=NNC(=Nc3ccccc3)SC2)c1C", "re-replication activation": "inactive: 72%"}, {"smiles": "CCn1c2ccccc2c2nc3cc(OC)c(OC)cc3nc21", "Potency": "active: 18.4 µM"}, {"smiles": "C=CCNc1nc(Nc2ccc(-c3nc4ccccc4o3)cc2)nc(N2CCOCC2)n1", "Potency": "inconclusive: 23.1 µM [activator, single point]"}, {"smiles": "c1ccc2c(c1)oc1c(Nc3ccc4c(c3)OCCO4)ncnc12", "re-replication activation": "inactive: 1.88%"}, {"smiles": "O=C(COC(=O)CCc1nc2ccccc2c(=O)[nH]1)Nc1ccc2c(c1)OCO2", "re-replication activation": "inactive: -15.8%"}, {"smiles": "COc1cc(/C=C/C(=O)OCC(=O)Nc2nnc(-c3ccccc3)o2)cc(OC)c1OC", "re-replication activation": "inactive: -4.02%"}, {"smiles": "Cc1ccc(N(C(=O)Cc2c[nH]c3ccccc23)C(C(=O)NC2CCCCC2)c2ccco2)cc1", "note": "(stereo not given)", "Potency": "inconclusive: 23.1 µM [activator, single point]"}, {"smiles": "Nc1cc2nn(-c3ccccc3)nc2cc1Cl", "Potency": "inconclusive: 23.1 µM [activator, single point]"}, {"smiles": "C#CCOCCOCCOCCNc1nc(N2CCN(C(=O)CCCCCCCCCCNC(=O)Cn3cc(C[C@@H](C)O)nn3)CC2)nc(N2CCN(C(=O)CCCCCCCCCCNC(=O)[C@@H](CCSC)n3cc(CCO)nn3)CC2)n1", "Potency": "inconclusive: 2.91 µM [activator, single point]"}, {"smiles": "CCOc1ccc(-c2ccc(SC)nn2)cc1", "re-replication activation": "inactive: 5.33%"}, {"smiles": "O=C1CC(N(CCc2ccccc2)C(=S)Nc2ccccc2)C(=O)N1c1ccccc1", "note": "(stereo not given)", "Potency": "inconclusive: 29.1 µM [activator, single point]"}, {"smiles": "COc1cccc(NC(=O)CN(C)C(=O)Cc2ccc3c(c2)OCCO3)c1", "re-replication activation": "inactive: 3.05%"}, {"smiles": "CCCc1cc(-c2n[nH]c(C(=O)OCC)c2-c2cscn2)c(O)cc1O", "re-replication activation": "inactive: -12.8%"}, {"smiles": "CC1(c2nnc(-c3cccc(Cl)c3)o2)CC(c2ccc(C#N)cc2)=NO1", "note": "(stereo not given)", "re-replication activation": "inactive: -0.669%"}, {"smiles": "S=C1NCN(Cc2cccnc2)CN1c1cccc(Cl)c1", "re-replication activation": "inactive: -15%"}, {"smiles": "COc1cc(C(=O)N2CCN(c3cc(Cl)ccc3Cl)CC2)cc(OC)c1OC", "Potency": "active: 1.16 µM"}, {"smiles": "O=C(Nc1ccc([N+](=O)[O-])cc1)Nc1ccon1", "Potency": "inconclusive: 0.731 µM [activator, full curve, poor fit]"}, {"smiles": "CCCCNC(=S)N/N=C/C1=CCC2CC1C2(C)C", "note": "(stereo not given)", "re-replication activation": "inactive: 13.4%"}, {"smiles": "CCCCCC(=O)N(O)C1CC(=O)N(c2ccccc2)C1=O", "note": "(stereo not given)", "Potency": "inconclusive: 29.1 µM [activator, single point]"}, {"smiles": "Cc1cc(N(C)C(=O)c2ccc3c(c2)S(=O)(=O)c2cc(Cl)ccc2C3=O)c(C(F)(F)F)o1", "re-replication activation": "inactive: -52.3%"}, {"smiles": "Cc1nc(NC(=O)CN(C)S(=O)(=O)c2ccc(Br)cc2)sc1C", "re-replication activation": "inactive: -5.27%"}, {"smiles": "N#C/C(=C/c1ccc(N2CCOCC2)c([N+](=O)[O-])c1)C(N)=O", "re-replication activation": "inactive: 12.9%"}, {"smiles": "Cc1ccc([N+](=O)[O-])cc1NC(=O)Nc1cccc(F)c1", "Potency": "inconclusive: 23.1 µM [activator, partial curve, poor fit]"}, {"smiles": "O=C(N/N=C/c1cccnc1)c1sc2ccccc2c1Cl", "Potency": "inconclusive: 29.1 µM [activator, single point]"}, {"smiles": "Nc1nc(NCc2ccco2)nc(N2CCCCC2)c1[N+](=O)[O-]", "re-replication activation": "inactive: -1.76%"}, {"smiles": "NNC(=O)c1ccc2nc(-c3ccc(Br)cc3)cn2c1", "Potency": "inconclusive: 18.4 µM [activator, partial curve, poor fit]"}, {"smiles": "CN(c1ccccc1)S(=O)(=O)c1ccc(Cl)c(C(=O)NCC(c2ccco2)N2CCCC2)c1", "note": "(stereo not given)", "re-replication activation": "inactive: -5.59%"}, {"smiles": "COC(=O)C1=NN(C(C)=O)C2(CC(=O)N(c3cccc(C)c3)C2=O)C1", "note": "(stereo not given)", "re-replication activation": "inactive: -5.92%"}, {"smiles": "S=c1[nH]nc(-c2ccncc2)n1/N=C/c1cn(-c2ccccc2)nc1-c1ccccc1", "Potency": "inconclusive: 18.4 µM [activator, single point]"}, {"smiles": "O=C(CC1c2ccccc2Oc2ccccc21)Nc1ccccc1C(F)(F)F", "Potency": "inconclusive: 7.31 µM [activator, partial curve, poor fit]"}, {"smiles": "c1ccc(CCc2ccccn2)cc1", "Potency": "inconclusive: 14.6 µM [activator, partial curve, poor fit]"}, {"smiles": "CN(C)c1c2ccccc2nc2c(F)c(F)c(F)c(F)c12", "Potency": "inconclusive: 29.1 µM [activator, single point]"}, {"smiles": "Cc1ccc(OCCn2cc(C(=S)N3CCCC3)c3ccccc32)cc1C", "Potency": "inconclusive: 29.1 µM [activator, single point]"}, {"smiles": "Cc1cc(C)c(C#N)c(SCCS(=O)(=O)Cc2ccc(Cl)cc2)n1", "re-replication activation": "inactive: -0.315% [at 9.22 µM]"}, {"smiles": "Cc1nn(C)c(C)c1S(=O)(=O)N1CCCC(C(=O)N2CCN(c3ccc(Cl)cc3)CC2)C1", "note": "(stereo not given)", "re-replication activation": "inactive: -4.89%"}, {"smiles": "Cc1nc(C(=O)NCCC(C)C)sc1C1(C)CC(c2ccccc2)=NO1", "note": "(stereo not given)", "Potency": "inconclusive: 3.26 µM [activator, single point]"}, {"smiles": "COc1ccc(OC)c(CN2CCCC(C(=O)c3ccccc3SC)C2)c1", "note": "(stereo not given)", "Potency": "inconclusive: 23.1 µM [activator, single point]"}, {"smiles": "O=C1/C(=C\\c2ccco2)CCC/C1=C\\c1ccco1", "Potency": "inconclusive: 20.6 µM [activator, single point]"}, {"smiles": "CN(C)C(CNC(=O)C1CC(=O)N(Cc2ccccc2)C1)c1ccccc1", "note": "(stereo not given)", "re-replication activation": "inactive: -0.817%"}, {"smiles": "CCC(=O)c1ccc(OCC(=O)Nc2ccccc2N2CCOCC2)cc1", "Potency": "inconclusive: 18.4 µM [activator, single point]"}, {"smiles": "CNC(=O)COc1coc(CN2CCN(Cc3ccccc3)CC2)cc1=O", "re-replication activation": "inactive: -0.434%"}, {"smiles": "CCN(C(=O)CSc1nnc(CNc2cccc(OC)c2)n1C1CCCCC1)C1CCS(=O)(=O)C1", "note": "(stereo not given)", "Potency": "inconclusive: 29.1 µM [activator, partial curve, poor fit]"}, {"smiles": "Cc1ccc2c(=O)[nH]c(Nc3nc(C)cc(-c4ccccc4)n3)nc2c1", "Potency": "inconclusive: 6.51 µM [activator, single point]"}, {"smiles": "Cc1ccc(-n2nc3c(c2NC(=O)C2CC2)CS(=O)(=O)C3)cc1C", "re-replication activation": "inactive: -10.2%"}, {"smiles": "COc1ccc(OC)c(CN2CCN(C(=O)c3cccc(S(=O)(=O)Nc4ccc(F)cc4)c3)CC2)c1", "re-replication activation": "inactive: -3.54%"}, {"smiles": "COc1ccc(CN2CCN(Cc3cccc(OC)c3)C(CCO)C2)cc1", "note": "(stereo not given)", "re-replication activation": "inactive: -87.4%"}, {"smiles": "C[C@@H]1C(c2ccccc2)=NN(c2ccc(Br)cc2)[C@H]1C(=O)N1CCOC1=O", "Potency": "inconclusive: 32.6 µM [activator, partial curve, poor fit]"}, {"smiles": "Nc1nc(=S)c2[nH]c(=S)[nH]c2[nH]1", "Potency": "inconclusive: 23.1 µM [activator, single point]"}, {"smiles": "COC(=O)[C@@]1(Cc2ccccc2)[C@H]2C(=O)N(Cc3ccccc3)C(=O)[C@H]2[C@H]2CN=C(SCC3CC3)N21", "re-replication activation": "inactive: 28.8% [at 9.22 µM]"}, {"smiles": "O=C(NC(=S)Nc1cccc(Cl)c1N1CCCC1)c1ccc(-c2cccc([N+](=O)[O-])c2)o1", "Potency": "inconclusive: 3.26 µM [activator, full curve]"}, {"smiles": "N=c1c2c(ncn1CCN1CCOCC1)Oc1ccc3ccccc3c1C2c1ccccc1", "note": "(stereo not given)", "re-replication activation": "inactive: -10.7%"}, {"smiles": "COc1ccc(-n2c(COc3ccc(Cl)cc3)nnc2SCc2ccc(C#N)cc2)cc1", "re-replication activation": "inactive: 2.47%"}, {"smiles": "CSCCC(NS(=O)(=O)c1cccs1)C(=O)NCc1ccc(C)cc1", "note": "(stereo not given)", "Potency": "active: 0.164 µM"}, {"smiles": "COc1ccc(CNC(=O)c2cccc(C)c2[N+](=O)[O-])cc1", "re-replication activation": "inactive: -49.4%"}, {"smiles": "O=C(Cc1ccccc1Cl)Nc1cccc(S(=O)(=O)N2CCCCCC2)c1", "re-replication activation": "inactive: -9.95%"}, {"smiles": "OC1CC2CCC(C1)N2CCCN1c2ccccc2Sc2ccc(Cl)cc21", "note": "(stereo not given)", "Potency": "inconclusive: 16.4 µM [activator, single point]"}, {"smiles": "O=S(=O)(c1cccs1)N1CCN(c2ccccc2Cl)CC1", "Potency": "inconclusive: 0.164 µM [activator, full curve, poor fit]"}, {"smiles": "Cc1ccc(S(=O)c2snnc2C)cc1", "note": "(stereo not given)", "re-replication activation": "inactive: 4.01%"}, {"smiles": "O=C(NCCOC12CC3CC(CC(C3)C1)C2)c1cccc(Br)c1", "Potency": "inconclusive: 18.4 µM [activator, single point]"}, {"smiles": "CCN1CCCC1CNC(=O)CN(C)S(=O)(=O)c1ccc(Cl)cc1", "note": "(stereo not given)", "re-replication activation": "inactive: -5.29%"}, {"smiles": "O=C(O)c1ccc(N/N=C/c2cccc3cccnc23)cc1", "Potency": "inconclusive: 3.66 µM [activator, full curve, poor fit]"}, {"smiles": "CNc1nc(N)c([N+](=O)[O-])c(Nc2ccccc2OC)n1", "re-replication activation": "inactive: 0.238%"}, {"smiles": "COc1nc(-c2ccccc2)ncc1S(=O)(=O)c1ccccc1", "re-replication activation": "inactive: -3.02%"}, {"smiles": "NC(=O)c1cc(Sc2ccccc2)nc2ccccc12", "Potency": "inconclusive: 18.4 µM [activator, partial curve, poor fit]"}, {"smiles": "CCCCn1c(NS(=O)(=O)c2ccc(C)cc2)c(S(=O)(=O)c2ccccc2)c2nc3ccccc3nc21", "Potency": "inconclusive: 8.91 µM [activator, partial curve]"}, {"smiles": "Cc1cccc(C(=O)OCC(=O)N2CCCCCC2)c1O", "Potency": "inconclusive: 29.1 µM [activator, single point]"}]}]}
